Experimental data as given in article PMC7862700.
The entries are a selection whose mix differs from that of the whole data set. At the low end of the ranking the order means little.

By UniProt entry, the sequences of proteins in these tests, tags left out. Where a name states a change or a piece, a line headed by the entry shows the natural chain unless it says otherwise.
UniProt Q9Y603: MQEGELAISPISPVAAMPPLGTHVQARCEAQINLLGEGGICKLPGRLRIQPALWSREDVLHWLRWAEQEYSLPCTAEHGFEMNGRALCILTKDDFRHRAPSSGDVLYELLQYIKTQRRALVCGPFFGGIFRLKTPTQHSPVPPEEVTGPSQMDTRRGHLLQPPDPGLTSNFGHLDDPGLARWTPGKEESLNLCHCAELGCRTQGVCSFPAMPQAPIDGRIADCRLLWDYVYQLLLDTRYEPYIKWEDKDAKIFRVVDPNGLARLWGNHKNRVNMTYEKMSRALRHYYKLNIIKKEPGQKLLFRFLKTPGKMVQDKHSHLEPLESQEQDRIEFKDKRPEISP
UniProt P41212: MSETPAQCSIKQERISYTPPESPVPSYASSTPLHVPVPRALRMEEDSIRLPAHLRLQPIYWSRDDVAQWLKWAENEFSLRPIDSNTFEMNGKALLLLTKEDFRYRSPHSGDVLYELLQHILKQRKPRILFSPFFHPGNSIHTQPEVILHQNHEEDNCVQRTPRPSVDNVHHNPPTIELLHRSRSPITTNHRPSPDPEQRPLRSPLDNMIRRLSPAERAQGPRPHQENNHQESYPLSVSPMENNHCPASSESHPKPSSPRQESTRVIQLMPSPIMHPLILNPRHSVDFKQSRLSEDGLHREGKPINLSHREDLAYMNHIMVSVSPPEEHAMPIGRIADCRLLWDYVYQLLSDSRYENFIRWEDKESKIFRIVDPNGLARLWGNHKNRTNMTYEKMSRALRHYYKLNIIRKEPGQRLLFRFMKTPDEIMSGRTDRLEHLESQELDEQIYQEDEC

Experiments:
Assay in all cases: DAPPL (digital affinity profiling via proximity ligation, sequencing)
Settings in all cases: 10 mM Tris-HCl pH 7.5, 50 mM NaCl, 1 mM DTT, 4% glycerol, room temperature, 30 min; GST-TFs on glutathione beads, 16-mer random dsDNA library, 0.1% …; high values mean tight binding; double strand, one strand shown; scale: fold enrichment (6-mer frequency, TF over GST control)
ELF3 = target: T1, ELF3 (UniProt P78545)
T1 sequence: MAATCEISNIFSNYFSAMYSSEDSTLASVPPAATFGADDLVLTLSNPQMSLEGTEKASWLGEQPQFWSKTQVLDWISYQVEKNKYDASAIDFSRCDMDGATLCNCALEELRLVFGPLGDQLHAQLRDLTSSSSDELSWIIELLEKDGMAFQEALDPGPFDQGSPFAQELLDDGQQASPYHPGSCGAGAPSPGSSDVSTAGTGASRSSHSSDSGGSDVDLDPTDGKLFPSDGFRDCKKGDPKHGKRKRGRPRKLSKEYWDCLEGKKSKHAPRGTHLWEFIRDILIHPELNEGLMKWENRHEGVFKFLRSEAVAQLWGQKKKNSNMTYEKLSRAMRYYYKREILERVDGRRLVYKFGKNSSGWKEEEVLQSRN

ETV7 = ETV7 (UniProt Q9Y603)
ETV6 = ETV6 (UniProt P41212)

Row | Sequence | binding signal (ELF3) | binding signal (ETV7) | binding signal (ETV6)
1 | ATGAGA | 0.876 | 0.826 | 0.886
2 | CAACGG | 0.837 | 0.914 | 0.996
3 | ATCGGT | 0.656 | 0.704 | 0.722
4 | CAGCAG | 0.913 | 0.851 | 0.807
5 | GGTGAG | 0.367 | 0.383 | 0.318
6 | AGATTG | 0.78 | 0.838 | 0.773
7 | GGGGAC | 0.483 | 0.432 | 0.419
8 | TGTGGG | 0.826 | 0.843 | 0.778
9 | GCGGAT | 0.931 | 0.84 | 0.829
10 | GCGGGC | 0.755 | 0.842 | 0.715
11 | CCAGAG | 0.748 | 0.67 | 0.668
12 | CACAGT | 0.852 | 0.786 | 0.736
13 | GATCGG | 0.457 | 0.525 | 0.47
14 | GGGGGC | 0.699 | 0.658 | 0.598
15 | GACAAT | 0.917 | 0.998 | 0.937
16 | GACCGT | 0.422 | 0.453 | 0.426
17 | AGGTTA | 0.871 | 0.823 | 0.802
18 | GCAGGG | 0.639 | 0.668 | 0.702
19 | GTGCAG | 0.689 | 0.76 | 0.695
20 | GGGAGT | 0.219 | 0.277 | 0.232

Row | Sequence | binding signal (ELF3) | binding signal (ETV7) | binding signal (ETV6)
21 | GACGCA | 0.506 | 0.494 | 0.525
22 | AAGTGA | 0.645 | 0.705 | 0.731
23 | CCGTGC | 0.562 | 0.627 | 0.589
24 | GAGCCG | 0.422 | 0.454 | 0.387
25 | CGGACT | 0.869 | 0.796 | 0.776
26 | GCAACG | 0.931 | 0.9 | 0.94
27 | GGGGCG | 0.753 | 0.638 | 0.714
28 | TAGCCA | 0.951 | 0.786 | 0.748
29 | GATGTG | 0.889 | 0.824 | 0.975
30 | CGAGGC | 0.833 | 0.68 | 0.639
31 | CGAGGG | 0.598 | 0.769 | 0.696
32 | CGCAAG | 0.706 | 0.822 | 0.734
33 | CGCATG | 0.769 | 0.665 | 0.593
34 | GCACGG | 0.87 | 0.794 | 0.768
35 | CCGTTG | 0.698 | 0.973 | 0.773
36 | GCACGT | 0.76 | 0.858 | 0.772
37 | GGTGCT | 0.829 | 0.885 | 0.863
38 | GAGGAG | 0.239 | 0.264 | 0.227
39 | ACGTGT | 0.623 | 0.64 | 0.609
40 | GCAGTT | 0.842 | 0.844 | 0.856

Given comma-delimited: entries from further up
Row,Sequence,binding signal (ELF3),binding signal (ETV7),binding signal (ETV6)
30,CGAGGC,0.833,0.68,0.639
31,CGAGGG,0.598,0.769,0.696
32,CGCAAG,0.706,0.822,0.734

(continued)

Row | Sequence | binding signal (ELF3) | binding signal (ETV7) | binding signal (ETV6)
41 | AGGGCA | 0.836 | 0.81 | 0.801
42 | CGCGGT | 0.858 | 0.778 | 0.782
43 | AGGGTG | 0.77 | 0.827 | 0.752
44 | GAGGGA | 0.479 | 0.513 | 0.513
45 | GGACAC | 0.766 | 0.832 | 0.769
46 | CTGGGA | 0.855 | 0.804 | 0.877
47 | CAGGAC | 0.658 | 0.762 | 0.806
48 | AGGGGG | 0.698 | 0.766 | 0.56
49 | AGTCGT | 0.397 | 0.435 | 0.411
50 | TCGTGC | 0.743 | 0.83 | 0.843
51 | GAGGTC | 0.524 | 0.588 | 0.575
52 | GCATCA | 0.778 | 0.714 | 0.732
53 | TGTGTG | 0.945 | 0.851 | 0.749
54 | AGCCTG | 0.823 | 0.892 | 0.77
55 | GTTAGT | 0.857 | 0.824 | 0.792
56 | CGCATC | 0.897 | 0.818 | 0.861
57 | GAGGTT | 0.784 | 0.81 | 0.693
58 | GAGCGC | 0.541 | 0.612 | 0.638
59 | GTCTGA | 0.834 | 0.779 | 0.782
60 | GGTCAG | 0.539 | 0.625 | 0.545
